Results are given in words; binding and its absence hold for the method and conditions named. Binding seen in cells or lysates may run through a third protein. Some entries that bind do so weakly or less than the wild type.

Chains of the proteins cited; added tags and fusions are not shown. Lines headed by an entry give the natural chain unless they say otherwise; changes in a name come on top.
UniProt P15056: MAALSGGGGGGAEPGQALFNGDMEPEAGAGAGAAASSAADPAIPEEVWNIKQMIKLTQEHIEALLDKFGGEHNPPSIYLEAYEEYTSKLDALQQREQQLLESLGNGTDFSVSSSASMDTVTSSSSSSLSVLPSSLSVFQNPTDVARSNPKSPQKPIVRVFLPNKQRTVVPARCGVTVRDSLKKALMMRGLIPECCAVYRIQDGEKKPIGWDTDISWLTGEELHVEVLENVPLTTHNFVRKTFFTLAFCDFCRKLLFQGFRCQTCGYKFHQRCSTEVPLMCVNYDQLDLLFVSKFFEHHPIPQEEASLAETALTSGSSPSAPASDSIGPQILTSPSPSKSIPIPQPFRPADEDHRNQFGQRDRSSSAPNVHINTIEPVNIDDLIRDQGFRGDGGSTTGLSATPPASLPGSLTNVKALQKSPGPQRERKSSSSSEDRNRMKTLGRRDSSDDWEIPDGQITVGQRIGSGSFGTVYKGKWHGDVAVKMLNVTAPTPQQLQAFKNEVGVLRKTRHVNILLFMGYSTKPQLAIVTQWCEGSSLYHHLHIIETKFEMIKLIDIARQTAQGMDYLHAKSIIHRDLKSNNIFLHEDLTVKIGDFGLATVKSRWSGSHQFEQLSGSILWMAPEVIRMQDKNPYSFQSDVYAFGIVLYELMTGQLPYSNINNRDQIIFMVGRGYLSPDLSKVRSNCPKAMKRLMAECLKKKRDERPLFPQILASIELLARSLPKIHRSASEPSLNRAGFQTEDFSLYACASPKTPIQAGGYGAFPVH

Experiment [1] deals with BRAF wild type (BRAF-myc) (human) (UniProt P15056). Nature of the experiment: co-IP; mitochondrial fractions of HCT116 cells co-transfected with TRAP1 and BRAF-myc or BRAF-V600E-myc; immunoprecipitated with anti-myc, immunoblotted for TRAP1; 18 h at 4°C, protein A/G-agarose, washed twice in lysis buffer. (In western blotting, separated proteins are transferred to a membrane and probed.)

The target of experiment [2] is BRAF-V600E (BRAF-V600E-myc) (human) (UniProt P15056). The description is as above.

B1: TRAP1 (protein, UniProt Q12931 60-704)
chain: STQTAEDKEEPLHSIISSTESVQGSTSKHEFQAETKKLLDIVARSLYSEKEVFIRELISNASDALEKLRHKLVSDGQALPEMEIHLQTNAEKGTITIQDTGIGMTQEELVSNLGTIARSGSKAFLDALQNQAEASSKIIGQFGVGFYSAFMVADRVEVYSRSAAPGSLGYQWLSDGSGVFEIAEASGVRTGTKIIIHLKSDCKEFSSEARVRDVVTKYSNFVSFPLYLNGRRMNTLQAIWMMDPKDVREWQHEEFYRYVAQAHDKPRYTLHYKTDAPLNIRSIFYVPDMKPSMFDVSRELGSSVALYSRKVLIQTKATDILPKWLRFIRGVVDSEDIPLNLSRELLQESALIRKLRDVLQQRLIKFFIDQSKKDAEKYAKFFEDYGLFMREGIVTATEQEVKEDIAKLLRYESSALPSGQLTSLSEYASRMRAGTRNIYYLCAPNRHLAEHSPYYEAMKKKDTEVLFCFEQFDELTLLHLREFDKKKLISVETDIVVDHYKEEKFEDRSPAAECLSEKETEELMAWMRNVLGSRVTNVKVTLRLDTHPAMVTVLEMGAARHFLRMQQLAKTQEERAQLLQPTLEINPRHALIKKLNQLRASEPGLAQLLVDQIYENAMIAAGLVDDPRAMVGRLNELLVKALERH
With B1, the binding result in experiment [1] and in experiment [2] was “binds” each time.

These data come from article PMC4673164.
